Source: paper PMC5286426, “The Calcium-Dependent Switch Helix of L-Plastin Regulates Actin Bundling” (Scientific Reports, 2017)

Target: L-plastin EF construct (EF-hand headpiece domain, H5 region omitted) (human)
Test: NMR titration; H5 peptide added to 15N-labelled EF; 1H,15N HSQC; both purified

Binder: STDVAKTFRKAINKKEGI (N-terminal acetyl (Ac-); C-terminal amide (-NH2)) [synthetic H5 peptide representing the H5 region of LPL (residues 83-100)]
- binding: binds weakly

No constants are given. Whether binding was seen depends on the method and setting. A result given as binding can be weak or reduced; the word gives no strength.
